PubChem BioAssay AID1347075 (National Center for Advancing Translational Sciences (NCATS), 2019)
Hit rate of the full screen: of about 400,000 compounds, about 5,500 (1.4%) were called active. Inconclusive results, whose numbers are uncertain, are shown with a selection of clear calls. Calls follow the shape of the dose curve; as a rule, active = well fitted cell-killing curve with a large enough effect; inconclusive = small, poorly fitted or top-dose-only effect, or effect the other way; inactive = flat fitted curve, though single readings scatter. Where the call is inconclusive, the potency comes from a doubtful curve fit.
% is scaled to controls: 0 for no effect and ±100 for the full control effect; potency is read from the fitted curve at half-maximal effect.

Assay: qHTS assay for MDR1-selective chemotherapeutics: Primary screen using the parental adenocarcinoma cell KB-3-1; also: nearly all actives have a fitted effect of over 60% in size
Details: KB-3-1 viability, CellTiter-Glo ATP luminescence, 72 h; activity change, negative = cytotoxic: at 46.1 µM (top of the series)
How it was run: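 Cytotoxicity measured as CellTiter-Glo luminescence after 72 h at 37 C. Compound titrations were pinned onto drug-naive KB-3-1 parental adenocarcinoma cells grown in DMEM with 10% FBS, and normalized data fitted to concentration-response curves.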
For `Cc1ccc(C)c(S(=O)(=O)N2CCN(C(=O)CCc3c[nH]c4ccccc34)CC2)c1`, the Potency was inconclusive: 20.6 µM [cytotoxic, single point]. With `CCOc1cc(CNCCCN2CCOCC2)cc(Br)c1OCc1ccccc1Cl` the Potency was inconclusive: 29.1 µM [cytotoxic, partial curve, poor fit]. For `COC(=O)c1ccc(C(=O)OC)c(NC(=O)c2cc3nc(-c4ccc(C)cc4)cc(C(F)(F)F)n3n2)c1`, the Potency was inconclusive: 23.1 µM [rising, single point]. With `COc1ccccc1OCCOc1ccc(/C=C2\C(=N)N3N=C(S(C)(=O)=O)SC3=NC2=O)cc1` the “activity change, negative = cytotoxic” value was inactive: 2.4%. For `COc1cc(C(=O)OCC(=O)Nc2ccc(OC(F)F)cc2)cc(OC)c1OC`, the “activity change, negative = cytotoxic” value was inactive: -2.02%. For `CCOc1ccc(NC(=O)Nc2cnccn2)cc1`, the Potency was inconclusive: 32.6 µM [rising, single point]. With `COC(=O)c1cccc(N2C(=O)C[C@](Sc3ccc(C)cc3)(C(=O)OC)[C@H]2c2ccccc2)c1` the “activity change, negative = cytotoxic” value was inactive: 0.867%. In the case of `O=C(Nc1ccccc1N1CCOCC1)c1cccnc1Cl`, the “activity change, negative = cytotoxic” value is reported as inactive: -1.29%. For `CCn1c2c(c(=O)n3ncc(C(=O)N4CCN(c5ccc(C(C)=O)cc5)CC4)c13)CN(Cc1ccc(OC)cc1)CC2`, the Potency was active: 20.6 µM. In the case of `C=CC[C@@H](CC(=O)N[C@H](CO)Cc1ccccc1)C(=O)NCCOC(=O)[C@@H](CC=C)CC(=O)OC(C)(C)C`, the “activity change, negative = cytotoxic” value is reported as inactive: -4.44%. In the case of `Cn1c(=S)c2[nH]c(SCC3CCCO3)nc2n(C)c1=O` (centres undefined), the Potency is reported as inconclusive: 3.26 µM [cytotoxic, full curve]. For `O=C(CSc1nnc2c(Cl)cc(C(F)(F)F)cn12)NCc1ccc(F)cc1`, the Potency was inconclusive: 11.6 µM [rising, single point]. With `O=C(Nc1ccc(F)cc1F)c1cc(S(=O)(=O)N2CCCCC2)c[nH]1` the Potency was active: 18.4 µM. For `O=C(Nc1nccs1)c1sc2cc(Cl)ccc2c1Cl`, the Potency was inconclusive: 29.1 µM [cytotoxic, single point]. With `O=C(Cc1cccs1)Nc1ccc(-c2nc3ccccc3[nH]2)cc1` the Potency was inconclusive: 32.6 µM [cytotoxic, single point]. With `O=[N+]([O-])c1ccc(NS(=O)(=O)c2ccc(Cl)c(Cl)c2)cc1` the Potency was inconclusive: 20.6 µM [cytotoxic, single point]. In the case of `CCOC(=O)CSc1nc2cc(OC)c(OC)cc2c2nc(-c3ccccc3)nn12`, the “activity change, negative = cytotoxic” value is reported as inactive: 19.1%. With `CC(=O)C1(C)CCC2C3C=C(C)C4=CC(=O)CCC4(C)C3CCC21C` (centres undefined) the Potency was inconclusive: 29.1 µM [cytotoxic, single point]. With `O=C(O)c1ccc(N/N=C/c2cn(Cc3ccccc3F)c3ccccc23)cc1` the Potency was inconclusive: 3.26 µM [cytotoxic, partial curve, poor fit]. In the case of `Cc1ccc2nc(N(CCCN(C)C)C(=O)c3ccc4ncsc4c3)sc2c1`, the “activity change, negative = cytotoxic” value is reported as inactive: -0.724%. With `COc1cc(C2NC(=S)NC(C)=C2C(=O)c2ccccc2)ccc1O` (centres undefined) the “activity change, negative = cytotoxic” value was inactive: 4.99%. For `COc1ccc(NS(=O)(=O)c2ccc3[nH]c(=O)ccc3c2)cc1OC`, the “activity change, negative = cytotoxic” value was inactive: 2.23%. With `O=C(O)CCc1nn2c3ccccc3n(CC(=O)O)c2nc1=O` the Potency was inconclusive: 29.1 µM [rising, single point]. For `CCOc1ccc(NC(=O)CN(C)C(=O)c2cccc3ccccc23)cc1OCC`, the Potency was inconclusive: 29.1 µM [rising, single point]. In the case of `COc1cc(NC(=O)CCN2CCN(c3ccccc3F)CC2)cc(OC)c1`, the “activity change, negative = cytotoxic” value is reported as inactive: 5.93%. With `Cc1ccccc1N(C(=O)Cn1nnc(-c2cccs2)n1)C(C(=O)NCCC(C)C)c1ccco1` (centres undefined) the Potency was inconclusive: 20.6 µM [cytotoxic, single point]. In the case of `CCCCc1nnc(NC(=O)c2ccc(N3CCCC3=O)cc2)s1`, the Potency is reported as inconclusive: 0.231 µM [rising, full curve]. In the case of `Cn1c(=O)c2c(nc(Br)n2CCSc2nc3ccccc3o2)n(C)c1=O`, the Potency is reported as inconclusive: 23.1 µM [cytotoxic, partial curve, poor fit]. With `Cc1ccc(NC(=O)C2CCN(c3ncnc4c3nc3n4CCCCC3)CC2)cc1Cl` the activity change, negative = cytotoxic was inconclusive: -41.4% [cytotoxic]. In the case of `CN1C(=O)c2ccccc2Sc2ccc(NC(=O)NCc3ccc(Cl)cc3)cc21`, the Potency is reported as inconclusive: 29.1 µM [cytotoxic, single point]. With `O=C(Nc1ccc(Cl)cc1)NC1CCCCC1Cc1ccco1` (centres undefined) the Potency was inconclusive: 29.1 µM [cytotoxic, single point]. For `COc1cccc(/C=N/NC(=O)CN(CCc2ccccc2)S(=O)(=O)c2ccc(NC(C)=O)cc2)c1`, the Potency was inconclusive: 29.1 µM [cytotoxic, single point]. With `COc1cccc2c1C(CO)N1C(C#N)C3CC(C(=O)O)C(C1C2)N3C` (centres undefined) the Potency was active: 0.0259 µM. With `COc1ccc(C(CCNCc2ccccc2)c2ccc(F)cc2)cc1` (centres undefined) the Potency was inconclusive: 29.1 µM [cytotoxic, single point]. With `COc1cc(C(=O)N2CCN(c3cc(Cl)ccc3Cl)CC2)cc(OC)c1OC` the Potency was active: 0.326 µM. With `CCOc1ccc(-c2ccc(SC)nn2)cc1` the Potency was inconclusive: 11.6 µM [cytotoxic, partial curve, poor fit]. In the case of `CC(C)NC(=O)N[C@H]1CC[C@H](CC(=O)NCc2ccc(Oc3ccccc3)cc2)O[C@@H]1CO`, the Potency is reported as inconclusive: 20.6 µM [cytotoxic, partial curve, poor fit]. For `COC(=O)CCCCCn1c(-c2ccccc2)cn2c3c(=O)n(C)c(=O)n(C)c3nc12`, the “activity change, negative = cytotoxic” value was inactive: -0.258%. For `CCn1c2ccccc2c2nc3cc(OC)c(OC)cc3nc21`, the Potency was inconclusive: 2.59 µM [cytotoxic, full curve]. For `Cc1cc2c(cc1NC(=O)c1ccccc1Cl)n(C)c(=O)c(=O)n2C`, the “activity change, negative = cytotoxic” value was inactive: -10.7%. In the case of `CCOC(=O)c1c(C)[nH]c(C2=NNC(=Nc3ccccc3)SC2)c1C`, the Potency is reported as inconclusive: 23.1 µM [cytotoxic, partial curve, poor fit]. In the case of `Cc1cccc(CCn2c(=O)c3ccccc3n(CC(=O)Nc3ccccc3F)c2=O)c1`, the “activity change, negative = cytotoxic” value is reported as inactive: 3.42%. For `Cc1ccc(N(C(=O)Cc2c[nH]c3ccccc23)C(C(=O)NC2CCCCC2)c2ccco2)cc1` (centres undefined), the Potency was inconclusive: 23.1 µM [cytotoxic, single point]. In the case of `Cc1ccc(C)c(N2CCN(CCCNC(=O)c3cnn(-c4ccccc4)c3C3CCN(C(=O)OC(C)(C)C)CC3)CC2)c1`, the Potency is reported as inconclusive: 29.1 µM [cytotoxic, single point].
